The record followed here is the supplement of paper PMC10849652.

Amino acid sequences for entries named in this document (tags omitted). A change or cut given only in a name is not applied to a line headed by its entry.
UniProt Q14160: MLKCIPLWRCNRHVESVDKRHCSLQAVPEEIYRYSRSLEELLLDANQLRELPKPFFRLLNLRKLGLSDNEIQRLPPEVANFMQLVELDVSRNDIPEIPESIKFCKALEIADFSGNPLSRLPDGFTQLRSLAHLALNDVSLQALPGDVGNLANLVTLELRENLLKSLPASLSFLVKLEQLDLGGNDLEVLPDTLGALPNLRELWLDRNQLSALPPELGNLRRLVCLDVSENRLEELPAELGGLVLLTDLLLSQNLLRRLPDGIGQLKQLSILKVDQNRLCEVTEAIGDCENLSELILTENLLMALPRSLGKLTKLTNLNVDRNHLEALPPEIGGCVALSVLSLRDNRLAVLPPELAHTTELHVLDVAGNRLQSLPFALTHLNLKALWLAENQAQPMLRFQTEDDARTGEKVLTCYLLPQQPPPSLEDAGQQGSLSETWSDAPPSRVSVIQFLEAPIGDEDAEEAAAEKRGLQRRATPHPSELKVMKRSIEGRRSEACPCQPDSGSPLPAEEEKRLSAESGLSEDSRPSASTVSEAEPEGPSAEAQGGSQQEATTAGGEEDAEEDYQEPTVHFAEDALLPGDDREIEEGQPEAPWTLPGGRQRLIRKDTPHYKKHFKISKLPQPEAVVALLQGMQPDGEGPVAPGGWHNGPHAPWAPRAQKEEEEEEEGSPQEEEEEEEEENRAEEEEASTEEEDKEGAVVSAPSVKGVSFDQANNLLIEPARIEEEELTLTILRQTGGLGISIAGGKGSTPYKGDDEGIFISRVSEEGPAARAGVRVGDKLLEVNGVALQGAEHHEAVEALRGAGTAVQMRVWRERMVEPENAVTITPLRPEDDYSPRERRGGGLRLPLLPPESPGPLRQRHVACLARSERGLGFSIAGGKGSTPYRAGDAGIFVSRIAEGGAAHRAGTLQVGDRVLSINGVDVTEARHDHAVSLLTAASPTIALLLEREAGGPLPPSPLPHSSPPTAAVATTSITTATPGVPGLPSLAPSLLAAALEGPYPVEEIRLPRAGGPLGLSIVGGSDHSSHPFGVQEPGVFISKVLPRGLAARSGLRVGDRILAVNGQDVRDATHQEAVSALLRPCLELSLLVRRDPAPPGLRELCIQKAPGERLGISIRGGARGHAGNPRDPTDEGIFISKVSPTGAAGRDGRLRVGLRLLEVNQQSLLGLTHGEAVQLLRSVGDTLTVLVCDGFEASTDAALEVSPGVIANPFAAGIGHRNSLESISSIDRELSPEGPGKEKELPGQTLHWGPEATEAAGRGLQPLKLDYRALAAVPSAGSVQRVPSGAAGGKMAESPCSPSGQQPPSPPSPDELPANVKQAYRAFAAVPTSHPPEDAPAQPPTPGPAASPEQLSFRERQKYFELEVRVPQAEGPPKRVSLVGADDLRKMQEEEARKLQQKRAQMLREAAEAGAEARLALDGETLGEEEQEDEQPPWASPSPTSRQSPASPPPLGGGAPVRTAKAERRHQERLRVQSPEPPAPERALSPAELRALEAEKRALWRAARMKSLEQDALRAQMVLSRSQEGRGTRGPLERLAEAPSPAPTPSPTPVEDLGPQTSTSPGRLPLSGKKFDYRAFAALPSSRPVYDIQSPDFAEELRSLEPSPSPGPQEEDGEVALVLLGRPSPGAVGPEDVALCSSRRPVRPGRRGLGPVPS
UniProt Q9BRK5: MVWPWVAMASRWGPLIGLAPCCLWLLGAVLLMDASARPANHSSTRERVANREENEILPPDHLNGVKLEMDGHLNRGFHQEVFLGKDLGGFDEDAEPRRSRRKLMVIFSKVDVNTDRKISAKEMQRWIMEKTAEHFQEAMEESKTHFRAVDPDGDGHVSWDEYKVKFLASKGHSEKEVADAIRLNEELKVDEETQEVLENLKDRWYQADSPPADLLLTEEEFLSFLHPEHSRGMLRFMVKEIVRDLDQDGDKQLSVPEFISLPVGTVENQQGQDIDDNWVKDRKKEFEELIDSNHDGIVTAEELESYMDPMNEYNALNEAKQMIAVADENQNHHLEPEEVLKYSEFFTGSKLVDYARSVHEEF
UniProt Q8WVM8, whole entry, looked up: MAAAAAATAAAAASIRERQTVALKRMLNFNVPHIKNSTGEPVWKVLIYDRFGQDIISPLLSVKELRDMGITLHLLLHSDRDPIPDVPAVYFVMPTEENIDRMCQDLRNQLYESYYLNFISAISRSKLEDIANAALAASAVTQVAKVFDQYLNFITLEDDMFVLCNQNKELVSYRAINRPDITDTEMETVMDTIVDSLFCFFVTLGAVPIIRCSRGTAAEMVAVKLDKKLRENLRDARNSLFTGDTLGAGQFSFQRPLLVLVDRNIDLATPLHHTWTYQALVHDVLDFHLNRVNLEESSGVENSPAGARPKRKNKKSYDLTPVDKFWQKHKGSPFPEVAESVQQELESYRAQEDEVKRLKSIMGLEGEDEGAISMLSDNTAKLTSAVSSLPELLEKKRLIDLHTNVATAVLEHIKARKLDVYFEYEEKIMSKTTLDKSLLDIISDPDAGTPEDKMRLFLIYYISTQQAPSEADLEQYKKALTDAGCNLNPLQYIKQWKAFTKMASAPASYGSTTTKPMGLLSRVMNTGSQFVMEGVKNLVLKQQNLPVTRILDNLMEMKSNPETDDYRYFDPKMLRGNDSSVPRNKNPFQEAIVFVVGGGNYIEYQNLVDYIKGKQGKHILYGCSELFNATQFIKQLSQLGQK
UniProt Q13228: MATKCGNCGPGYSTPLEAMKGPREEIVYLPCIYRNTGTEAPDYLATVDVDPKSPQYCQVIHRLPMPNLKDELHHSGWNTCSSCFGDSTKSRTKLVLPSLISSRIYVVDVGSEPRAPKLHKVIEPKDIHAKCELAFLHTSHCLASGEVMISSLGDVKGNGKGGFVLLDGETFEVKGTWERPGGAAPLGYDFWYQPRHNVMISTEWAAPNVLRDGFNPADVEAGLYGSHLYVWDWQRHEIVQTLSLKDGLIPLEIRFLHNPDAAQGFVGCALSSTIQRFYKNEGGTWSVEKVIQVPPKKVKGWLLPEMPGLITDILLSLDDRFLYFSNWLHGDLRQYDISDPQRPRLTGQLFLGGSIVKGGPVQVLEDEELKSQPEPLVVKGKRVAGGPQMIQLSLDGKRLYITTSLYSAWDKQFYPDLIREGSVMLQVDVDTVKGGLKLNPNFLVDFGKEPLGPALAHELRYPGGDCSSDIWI
UniProt P61619, whole entry, looked up: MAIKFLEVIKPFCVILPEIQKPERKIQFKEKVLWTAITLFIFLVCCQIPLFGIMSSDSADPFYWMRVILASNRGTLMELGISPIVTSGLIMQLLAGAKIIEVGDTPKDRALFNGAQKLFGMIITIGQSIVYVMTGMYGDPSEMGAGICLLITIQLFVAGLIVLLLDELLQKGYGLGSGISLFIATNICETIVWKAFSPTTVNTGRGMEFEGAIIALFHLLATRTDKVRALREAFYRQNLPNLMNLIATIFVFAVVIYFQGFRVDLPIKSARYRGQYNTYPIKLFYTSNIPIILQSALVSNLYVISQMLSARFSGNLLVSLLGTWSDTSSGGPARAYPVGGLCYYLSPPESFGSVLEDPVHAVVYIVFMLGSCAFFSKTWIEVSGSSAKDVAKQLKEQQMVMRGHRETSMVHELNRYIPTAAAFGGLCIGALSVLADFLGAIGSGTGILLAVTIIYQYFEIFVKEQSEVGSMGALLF
UniProt Q9UHR5: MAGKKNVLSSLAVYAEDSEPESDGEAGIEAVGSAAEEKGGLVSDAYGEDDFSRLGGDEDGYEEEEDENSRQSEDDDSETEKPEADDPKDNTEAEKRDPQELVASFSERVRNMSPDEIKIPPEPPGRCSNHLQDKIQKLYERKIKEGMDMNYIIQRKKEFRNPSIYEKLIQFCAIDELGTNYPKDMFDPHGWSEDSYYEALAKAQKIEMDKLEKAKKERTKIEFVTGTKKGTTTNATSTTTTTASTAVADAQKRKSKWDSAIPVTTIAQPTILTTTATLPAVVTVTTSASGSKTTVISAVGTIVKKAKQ
UniProt Q0VDG4: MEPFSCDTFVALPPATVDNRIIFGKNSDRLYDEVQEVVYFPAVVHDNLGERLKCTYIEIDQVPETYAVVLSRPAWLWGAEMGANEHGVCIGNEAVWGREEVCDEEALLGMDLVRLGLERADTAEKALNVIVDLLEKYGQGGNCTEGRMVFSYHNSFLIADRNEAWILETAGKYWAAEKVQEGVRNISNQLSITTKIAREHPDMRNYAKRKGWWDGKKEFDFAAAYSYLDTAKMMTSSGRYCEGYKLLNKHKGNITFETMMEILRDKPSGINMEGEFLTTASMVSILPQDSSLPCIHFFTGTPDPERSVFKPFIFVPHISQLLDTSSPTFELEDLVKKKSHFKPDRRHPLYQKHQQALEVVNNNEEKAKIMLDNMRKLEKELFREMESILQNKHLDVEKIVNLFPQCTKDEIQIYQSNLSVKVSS
UniProt Q96GA7: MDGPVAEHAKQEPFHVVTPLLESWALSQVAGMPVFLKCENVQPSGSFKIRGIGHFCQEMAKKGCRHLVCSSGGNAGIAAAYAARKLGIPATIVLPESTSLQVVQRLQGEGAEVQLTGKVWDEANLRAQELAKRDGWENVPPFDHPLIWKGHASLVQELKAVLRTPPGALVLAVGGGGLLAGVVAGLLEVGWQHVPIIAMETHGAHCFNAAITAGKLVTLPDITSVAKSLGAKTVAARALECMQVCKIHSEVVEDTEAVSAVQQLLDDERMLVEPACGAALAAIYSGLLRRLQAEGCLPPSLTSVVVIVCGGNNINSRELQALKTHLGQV
UniProt Q9UGP8: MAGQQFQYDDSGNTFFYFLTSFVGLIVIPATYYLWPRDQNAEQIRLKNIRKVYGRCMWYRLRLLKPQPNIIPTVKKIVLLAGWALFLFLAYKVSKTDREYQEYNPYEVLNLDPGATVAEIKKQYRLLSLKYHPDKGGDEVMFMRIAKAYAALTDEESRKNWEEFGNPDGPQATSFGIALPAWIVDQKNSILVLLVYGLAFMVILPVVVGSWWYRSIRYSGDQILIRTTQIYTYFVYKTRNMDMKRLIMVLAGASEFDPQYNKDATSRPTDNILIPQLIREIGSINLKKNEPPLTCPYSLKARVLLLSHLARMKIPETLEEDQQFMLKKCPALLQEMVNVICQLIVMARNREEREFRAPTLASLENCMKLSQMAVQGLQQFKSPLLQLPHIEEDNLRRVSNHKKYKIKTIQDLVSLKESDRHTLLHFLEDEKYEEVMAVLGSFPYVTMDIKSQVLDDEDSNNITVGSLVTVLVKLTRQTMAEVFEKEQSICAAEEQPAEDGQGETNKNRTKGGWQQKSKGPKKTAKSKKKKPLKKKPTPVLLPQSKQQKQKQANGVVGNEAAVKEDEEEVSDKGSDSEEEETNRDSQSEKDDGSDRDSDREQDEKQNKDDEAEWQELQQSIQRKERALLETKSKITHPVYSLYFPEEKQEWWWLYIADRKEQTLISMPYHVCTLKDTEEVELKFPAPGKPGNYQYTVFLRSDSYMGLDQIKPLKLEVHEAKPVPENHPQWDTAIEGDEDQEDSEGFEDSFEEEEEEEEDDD
UniProt Q96ER3: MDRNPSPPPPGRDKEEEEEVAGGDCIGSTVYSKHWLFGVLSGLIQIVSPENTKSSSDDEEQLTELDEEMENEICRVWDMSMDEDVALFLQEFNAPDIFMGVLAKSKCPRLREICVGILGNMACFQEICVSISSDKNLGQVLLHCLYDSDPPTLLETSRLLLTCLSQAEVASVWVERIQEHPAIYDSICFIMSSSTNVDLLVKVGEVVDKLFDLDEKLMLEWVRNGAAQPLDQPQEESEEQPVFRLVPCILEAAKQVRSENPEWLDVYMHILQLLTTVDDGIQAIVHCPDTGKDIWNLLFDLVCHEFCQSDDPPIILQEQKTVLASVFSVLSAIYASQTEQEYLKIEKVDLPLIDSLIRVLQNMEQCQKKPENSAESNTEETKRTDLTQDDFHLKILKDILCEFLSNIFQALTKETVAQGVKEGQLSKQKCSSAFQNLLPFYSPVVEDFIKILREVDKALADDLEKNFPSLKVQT
UniProt Q9Y6B6: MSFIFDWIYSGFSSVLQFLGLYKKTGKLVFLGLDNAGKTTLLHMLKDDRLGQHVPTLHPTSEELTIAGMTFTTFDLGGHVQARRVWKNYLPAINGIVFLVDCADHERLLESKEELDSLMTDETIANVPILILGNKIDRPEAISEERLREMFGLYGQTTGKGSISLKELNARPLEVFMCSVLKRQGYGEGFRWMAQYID
UniProt Q9NSI8: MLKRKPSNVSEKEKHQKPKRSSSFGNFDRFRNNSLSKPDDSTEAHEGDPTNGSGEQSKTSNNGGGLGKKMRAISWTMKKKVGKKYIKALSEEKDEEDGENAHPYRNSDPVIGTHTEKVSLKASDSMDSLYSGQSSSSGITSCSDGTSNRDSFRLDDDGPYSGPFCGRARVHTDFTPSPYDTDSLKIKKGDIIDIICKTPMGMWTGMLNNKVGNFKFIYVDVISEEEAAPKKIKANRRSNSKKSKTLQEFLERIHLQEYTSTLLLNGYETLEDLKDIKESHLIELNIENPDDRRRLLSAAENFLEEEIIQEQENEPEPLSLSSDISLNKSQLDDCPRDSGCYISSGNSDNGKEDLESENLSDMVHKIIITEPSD

Some of the results follow.

Compound in this assay: C/C(=N\NC(=O)C1=CC(=CC=C1)S(=O)(=O)N2CCOCC2)/C3=C(C=CC(=C3)Cl)O
Put plainly: log2 fold change, soluble protein after heating vs DMSO (PISA); higher = thermal stabilisation; K562 lysate, 10 uM; active = over 0.2 and 3.5 SD of the protein, either way, in both replicates (recomputed). In short, it runs like this:
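Soluble protein was defined as the supernatant remaining after 21,000xg for 90 min, following pooling of heated aliquots and adjustment to 0.5% NP-40 at 4°C. Before that, crude K562 extract at 1 mg/mL protein in PBS pH 7.4 with 1 mM MgCl2 was treated with 10 μM compound for 30 min and heated for 3 min across 48°C-58°C. Quantification used TMTpro 16plex LC-MS/MS with channel sums equalised, and values are log-two fold changes in thermal stability relative to solvent controls from duplicates.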
As for SCRIB (UniProt Q14160), the log2 fold change was inactive: -0.031. For SEC23A (UniProt Q15436), the log2 fold change was inactive: 0.011. SEPTIN9 (UniProt Q9UHD8): the log2 fold change was inactive: 0.004.

Consider SEMA4B (UniProt Q9NPR2), for which the log2 fold change is inactive: 0.023. Turning to SDF4 (UniProt Q9BRK5), the log2 fold change was inactive: -0.014. In the case of SELENOS (UniProt Q9BQE4), the log2 fold change is inactive: -0.01.

As for SCFD1 (UniProt Q8WVM8), the log2 fold change was inactive: -0.003. As for SEC24D isoform 2 (UniProt O94855), the log2 fold change is inactive: 0.04.

Take SELENBP1 isoform 4 (UniProt Q13228): the log2 fold change was inactive: -0.048.

Turning to SEC61A1 (UniProt P61619), the log2 fold change is inactive: -0.043. With SEC24C (UniProt P53992), the log2 fold change was inactive: -0.032.

For SAP30BP (UniProt Q9UHR5), the log2 fold change is inactive: -0.003. In the case of SCRN3 (UniProt Q0VDG4), the log2 fold change was inactive: -0.001. The value for SDSL (UniProt Q96GA7) was inactive: -0.071; that for SEC63 (UniProt Q9UGP8) was inactive: -0.067; that for SARG (UniProt Q9BW04) was inactive: 0.093. SAAL1 (UniProt Q96ER3): the log2 fold change was inactive: 0.038.

In the case of SAR1B (UniProt Q9Y6B6), the log2 fold change was inactive: 0.011. For SAMSN1 (UniProt Q9NSI8), the log2 fold change was inactive: -0.087. As to SDCCAG8 (UniProt Q86SQ7), the log2 fold change was inactive: -0.004.

With SCYL1 (UniProt Q96KG9), the log2 fold change is inactive: -0.024.

SDAD1 (UniProt Q9NVU7): the log2 fold change is inactive: 0.001. SEPTIN2 isoform 2 (UniProt Q15019): the log2 fold change was inactive: -0.043.
